Measured values taken from PubChem BioAssay AID1487 (National Center for Advancing Translational Sciences (NCATS), 2009).
This is one part of the list. These are further read-outs of the screen, such as a control signal, another cell line or another target. No call is given for them. Compounds called inactive in the main read-out are mostly missing here. The note in brackets gives the kind of curve behind each potency; many fits are weak.

Test: qHTS Assay for Modulators of Lamin A Splicing
Details: HeLa LMNA splicing GFP/RFP minigene ratio, 48 h
Outline: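 S3 HeLa stable clones carrying a lamin A-EGFP splicing minigene plus DsRed2 were seeded at 600 cells/well in Opti-MEM with 2% FBS, pin-dosed and incubated 48 h at 37°C. Acumen cytometry (488 nm) gave the GFP/RFP total-intensity ratio.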

[1] = measured here: RFP viability control channel
[2] = measured here: GFP splicing reporter channel

Row | Structure (SMILES) | AC50 [1] | AC50 [2]
1 | COc1ccc(C(=O)Nc2ccc3nc(SCC(=O)N4CCCC4)sc3c2)cc1 | 0.0178 µM [falling, full curve, poor fit] | 
2 | CC(C)(C)SCCNC(=O)/C=C/c1ccc([N+](=O)[O-])cc1 | 28.2 µM [rising, partial curve] | 
3 | CCn1cc(C2=NOC(C(=O)Nc3cccc(C(C)=O)c3)C2)c(C)n1 (centres undefined) | 14.1 µM [rising, partial curve] | 1.58 µM [rising, full curve]
4 | CCN(CC)Cc1c(O)ccc2c(=O)c(-c3ccc4c(c3)OCCO4)coc12 | 22.4 µM [rising, single point] | 
5 | CCCNC(=O)NC(=O)COC(=O)c1ccc(S(=O)(=O)N(C)c2ccccc2OC)cc1 | 3.55 µM [rising, full curve] | 
6 | Cc1ccc(S(=O)(=O)N2CCC(c3nc4c(nnn4Cc4ccccc4)c(=O)[nH]3)CC2)cc1 | 3.98 µM [falling, single point] | 
7 | CC(=O)c1ccc2c(c1)C1C=CCC1C(c1ccc(S(=O)(=O)N3CCOCC3)cc1)N2 (centres undefined) | 2.51 µM [rising, single point] | 2.51 µM [rising, partial curve]
8 | COc1ccc(NS(=O)(=O)c2ccc(OC)c(OC)c2)cc1OC | 17.8 µM [rising, single point] | 
9 | c1cncc(CNc2ncnc3ccc(-c4ccoc4)cc23)c1 |  | 2.51 µM [falling, partial curve]
10 | CCc1ccc2[nH]c(=O)c(CN(Cc3ccccc3OC)Cc3nnnn3Cc3ccco3)cc2c1 | 35.5 µM [falling, single point] | 35.5 µM [falling, single point]
11 | CCc1[nH]c(C(=O)O)c(C)c1C(=O)OC | 0.00501 µM [falling, full curve, poor fit] | 
12 | CCn1ccc2c(OCC(=O)Nc3ccc(C)c(Cl)c3)cccc2c1=O | 0.01 µM [falling, full curve, poor fit] | 35.5 µM [falling, single point]
13 | O=C(COC(=O)c1cnccn1)c1ccc(Cl)cc1 |  | 1.41 µM [falling, partial curve]
14 | N#C/C(=C\c1cccn1-c1ccccc1)C(=O)NC1CCCCC1 | 3.98 µM [rising, full curve, poor fit] | 
15 | CCCN(CCC)c1nc(Cl)nc(NCc2ccco2)n1 | 0.0501 µM [rising, single point] | 
16 | O=C(/C=C/c1ccc(Cl)cc1Cl)Nc1ccc(CN2CCOCC2)cc1 | 7.94 µM [rising, partial curve] | 7.94 µM [rising, partial curve, poor fit]
17 | CC(C)CCOC(=O)C[N+](C)(C)CCOC1CC2CCC1(C)C2(C)C (centres undefined) |  | 0.0501 µM [rising, full curve, poor fit]
18 | CCOc1ccc(NC(=S)Nc2ccccc2C2(C)CC2)cc1 | 1.12 µM [falling, full curve, poor fit] | 1.26 µM [falling, full curve, poor fit]
19 | CCOc1cccc(C(=O)Nc2nc(-c3ccc(S(=O)(=O)N4CCOCC4)cc3)cs2)c1 |  | 7.94 µM [rising, partial curve, poor fit]

3 entries from above, with tabs:
Row	Structure (SMILES)	AC50 [1]	AC50 [2]
10	CCc1ccc2[nH]c(=O)c(CN(Cc3ccccc3OC)Cc3nnnn3Cc3ccco3)cc2c1	35.5 µM [falling, single point]	35.5 µM [falling, single point]
15	CCCN(CCC)c1nc(Cl)nc(NCc2ccco2)n1	0.0501 µM [rising, single point]	
16	O=C(/C=C/c1ccc(Cl)cc1Cl)Nc1ccc(CN2CCOCC2)cc1	7.94 µM [rising, partial curve]	7.94 µM [rising, partial curve, poor fit]

Further entries:

Row | Structure (SMILES) | AC50 [1] | AC50 [2]
20 | O=[N+]([O-])c1ccc(Oc2ccc(F)cc2)c2ccncc12 | 31.6 µM [rising, single point] | 15.8 µM [rising, single point]
21 | COc1ccc(Cc2nc(N)nc(N)n2)cc1 |  | 12.6 µM [rising, single point]
22 | N#C/C(=N\Nc1ccc(S(=O)(=O)N2CCCCC2)cc1)C(N)=S | 14.1 µM [rising, partial curve] | 
23 | COc1cccc(C2CCCN2Cc2nc(-c3sccc3C)oc2C)c1 (centres undefined) |  | 17.8 µM [falling, single point]
24 | Cc1nc(CSc2nsc(C)c2C#N)cs1 |  | 22.4 µM [falling, partial curve]
25 | CC1(C)CC(NC(=O)c2sc3cc(Cl)ccc3c2Cl)CC(C)(C)N1 |  | 0.00631 µM [falling, full curve]
26 | Nc1nc2ccc(S(=O)(=O)c3ccc4nc(N)sc4c3)cc2s1 | 17.8 µM [rising, single point] | 
27 | CCCN(CCC)S(=O)(=O)c1ccc(C(=O)Nc2nnc(-c3cc(OC)cc(OC)c3)o2)cc1 | 0.126 µM [rising, full curve] | 
28 | OC(CCCN1CCCCC1)(c1ccccc1)c1ccccc1 | 20 µM [rising, single point] | 
29 | CCCC(=O)c1ccc(N2CCN(C(=O)c3ccccc3Br)CC2)c(F)c1 | 25.1 µM [rising, single point] | 35.5 µM [rising, single point]
30 | COC(=O)C1=C(C)N(C)C(=O)NC1c1cc(Cl)cc(Cl)c1OC (centres undefined) |  | 7.08 µM [rising, full curve, poor fit]
31 | Nc1ccc(C(=O)NCc2ccccc2)cc1 | 0.355 µM [rising, full curve, poor fit] | 
32 | CCN(CC)CCOC(=O)C(c1ccccc1)c1ccccc1 | 0.562 µM [falling, full curve] | 0.398 µM [falling, full curve]
33 | Cc1ccccc1-n1nc2c(c1NC(=O)/C=C\c1ccc3c(c1)OCO3)CSC2 | 14.1 µM [rising, single point] | 
34 | COCCCNC(=O)c1nn(C)c2c1CS(=O)(=O)c1ccccc1-2 | 0.0398 µM [falling, full curve] | 0.0631 µM [falling, full curve, poor fit]
35 | COC(=O)c1ccc(COc2ccccc2/C=N/NS(=O)(=O)c2ccc(C)cc2)cc1 | 11.2 µM [falling, partial curve] | 11.2 µM [falling, partial curve]
36 | CC(=O)NC1(C(Cl)(Cl)Cl)Oc2ccccc2O1 | 25.1 µM [falling, single point] | 17.8 µM [falling, single point]
37 | CCN(CC)S(=O)(=O)c1ccc(C(=O)NC(C)(C)C)cc1 | 1.26 µM [falling, full curve, poor fit] | 
